# Measurements reported in PubChem BioAssay AID540256 (National Center for Advancing Translational Sciences (NCATS), 2011).
# The whole screen tested about 300,000 compounds, of which about 3,700 (1.2%) were called active. Inconclusive results, whose numbers are uncertain, are shown with a selection of clear calls. Calls follow the shape of the full dose curve; tested in HEK293 cells. Potencies of inconclusive entries are doubtful fits and often do not repeat.
# Assay: qHTS for Inhibitors of binding or entry into cells for Lassa Virus; also: nearly all actives have a fitted effect of over 50% in size
# Settings: Lassa virus pseudotype entry inhibition, cell reporter; activity change, negative = inhibition: at 37.9 µM (top of the series) unless noted
# % is scaled to controls: 0 for no effect and ±100 for the full control effect; potency is read from the fitted curve at half-maximal effect.
SMILES,Potency,"activity change, negative = inhibition"
S=c1[nH]nc(-c2ccccc2)n1/N=C/C=C/c1ccco1,"inconclusive: 12.6 µM [inhibitor, partial curve, poor fit]",–
CCc1ccc(NC(=O)NC(C)c2ccc3c(c2)OCO3)cc1 (stereo unspecified),"inconclusive: 15.8 µM [inhibitor, single point]",–
CCOC(=O)/C(C#N)=C\c1cc(C)n(-c2ccccc2)c1C,"inconclusive: 14.6 µM [inhibitor, single point]",–
COc1ccc(OC)c(/C=N/NC(=O)c2cc[n+](Cc3ccccc3)cc2)c1,"inconclusive: 5.62 µM [activator, single point]",–
COc1ccccc1N(CC(O)COc1ccc(C)cc1)S(=O)(=O)c1ccccc1 (stereo unspecified),"inconclusive: 25.1 µM [inhibitor, single point]",–
CCN(c1ccc(OC)cc1)S(=O)(=O)N1CCCC(C(=O)NCc2ccccc2Br)C1 (stereo unspecified),"inconclusive: 11.2 µM [inhibitor, partial curve, poor fit]",–
CC1CC(C)CN(CCOCCSc2ccc(Cl)cc2)C1 (stereo unspecified),"inconclusive: 22.4 µM [inhibitor, single point]",–
COc1ccc(NC(=O)C(CC(=O)O)Cc2ccc(Br)cc2)cc1 (stereo unspecified),"inconclusive: 3.16 µM [activator, partial curve]",–
COc1ccc(COc2cc(-c3cccc(OC)c3)nc3ccc(NC(=O)c4ccc(OC)cc4)cc23)cc1,"inconclusive: 14.6 µM [inhibitor, partial curve, poor fit]",–
COc1ccc(NC(=O)c2cccc(N3C(=O)C4C5C=CC(C6CC56)C4C3=O)c2)c(OC)c1 (stereo unspecified),active: 17.8 µM,–
COc1c(OC(C)=O)ccc(/C=N\NC(=O)c2ccc(Br)cc2)c1[N+](=O)[O-],"inconclusive: 4.47 µM [inhibitor, partial curve, poor fit]",–
COC(=O)c1ccccc1S(=O)(=O)N1CCCC(c2nc3c(nnn3Cc3ccc(C)cc3)c(=O)[nH]2)C1 (stereo unspecified),"inconclusive: 10 µM [inhibitor, partial curve, poor fit]",–
O=C(Nc1ccc(N2CCOCC2)cc1)c1nc2ccccc2s1,–,inactive: -8.27% [at 46.1 µM]
Cc1cc(C)cc(Nc2cc(C)nc3nc(-c4ccco4)nn23)c1,–,inactive: -28.4% [at 46.1 µM]
O=C(N/N=C/c1ccc(Cl)cc1)C(=O)N1CCCCCC1,"inconclusive: 22.4 µM [inhibitor, single point]",–
Cc1ccc(-c2nc3c4ccccc4n(CC(=O)N4CCN(c5ccc(F)cc5)CC4)c(=O)n3n2)cc1,–,inactive: 0.486% [at 46.1 µM]
COc1ccc2[nH]cc(CCNC(=O)CS(=O)(=O)Cc3ccccc3)c2c1,"inconclusive: 22.4 µM [inhibitor, partial curve, poor fit]",–
COc1cc(C(=O)Nc2nonc2-c2ccc(Cl)cc2)cc(OC)c1OC,"inconclusive: 8.91 µM [inhibitor, partial curve, poor fit]",–
CC(C)c1ccc(NC(=O)CCn2c(=O)c3cccn3c3ccccc32)cc1,"inconclusive: 11.2 µM [inhibitor, partial curve, poor fit]",–
COc1cccc2sc(=NC(=O)CCS(=O)(=O)c3ccc(C)cc3)n(C)c12,"inconclusive: 0.112 µM [inhibitor, partial curve, poor fit]",–
COc1cccc(CNC(=O)C(CC(C)C)NC(=O)c2ccccc2C)c1 (stereo unspecified),"inconclusive: 7.08 µM [inhibitor, partial curve, poor fit]",–
COc1ccc(O)c(/C=N/n2c(-c3ccco3)csc2=Nc2cccnc2)c1,"inconclusive: 20 µM [inhibitor, partial curve, poor fit]",–

# Given with bars between the fields: part of the list above
SMILES | Potency | activity change, negative = inhibition
S=c1[nH]nc(-c2ccccc2)n1/N=C/C=C/c1ccco1 | inconclusive: 12.6 µM [inhibitor, partial curve, poor fit] | –
CCOC(=O)/C(C#N)=C\c1cc(C)n(-c2ccccc2)c1C | inconclusive: 14.6 µM [inhibitor, single point] | –
COc1ccc(OC)c(/C=N/NC(=O)c2cc[n+](Cc3ccccc3)cc2)c1 | inconclusive: 5.62 µM [activator, single point] | –
COc1ccccc1N(CC(O)COc1ccc(C)cc1)S(=O)(=O)c1ccccc1 (stereo unspecified) | inconclusive: 25.1 µM [inhibitor, single point] | –
CC1CC(C)CN(CCOCCSc2ccc(Cl)cc2)C1 (stereo unspecified) | inconclusive: 22.4 µM [inhibitor, single point] | –
COc1ccc(NC(=O)C(CC(=O)O)Cc2ccc(Br)cc2)cc1 (stereo unspecified) | inconclusive: 3.16 µM [activator, partial curve] | –
COc1ccc(COc2cc(-c3cccc(OC)c3)nc3ccc(NC(=O)c4ccc(OC)cc4)cc23)cc1 | inconclusive: 14.6 µM [inhibitor, partial curve, poor fit] | –
COc1c(OC(C)=O)ccc(/C=N\NC(=O)c2ccc(Br)cc2)c1[N+](=O)[O-] | inconclusive: 4.47 µM [inhibitor, partial curve, poor fit] | –
COC(=O)c1ccccc1S(=O)(=O)N1CCCC(c2nc3c(nnn3Cc3ccc(C)cc3)c(=O)[nH]2)C1 (stereo unspecified) | inconclusive: 10 µM [inhibitor, partial curve, poor fit] | –
O=C(Nc1ccc(N2CCOCC2)cc1)c1nc2ccccc2s1 | – | inactive: -8.27% [at 46.1 µM]
Cc1cc(C)cc(Nc2cc(C)nc3nc(-c4ccco4)nn23)c1 | – | inactive: -28.4% [at 46.1 µM]
O=C(N/N=C/c1ccc(Cl)cc1)C(=O)N1CCCCCC1 | inconclusive: 22.4 µM [inhibitor, single point] | –
Cc1ccc(-c2nc3c4ccccc4n(CC(=O)N4CCN(c5ccc(F)cc5)CC4)c(=O)n3n2)cc1 | – | inactive: 0.486% [at 46.1 µM]
COc1ccc2[nH]cc(CCNC(=O)CS(=O)(=O)Cc3ccccc3)c2c1 | inconclusive: 22.4 µM [inhibitor, partial curve, poor fit] | –
COc1cc(C(=O)Nc2nonc2-c2ccc(Cl)cc2)cc(OC)c1OC | inconclusive: 8.91 µM [inhibitor, partial curve, poor fit] | –
COc1ccc(O)c(/C=N/n2c(-c3ccco3)csc2=Nc2cccnc2)c1 | inconclusive: 20 µM [inhibitor, partial curve, poor fit] | –

# Next structures

SMILES,Potency,"activity change, negative = inhibition"
O=C(/C=C/c1ccc(-c2cccc([N+](=O)[O-])c2)o1)N1CCOCC1,–,inactive: 0.796%
COc1ccc(C2=NOC(CN3C(=O)c4ccccc4S3(=O)=O)C2)cc1 (stereo unspecified),"inconclusive: 0.501 µM [activator, partial curve, poor fit]",–
C=CCN1C(=O)c2ccc(C(=O)N3CCN(S(=O)(=O)c4cccc(F)c4)CC3)cc2C1=O,"inconclusive: 7.94 µM [activator, partial curve, poor fit]",–
Cc1ccc(C(C(=O)NC2CCCCC2)N(Cc2cccnc2)C(=O)C2COc3ccccc3O2)o1 (stereo unspecified),–,inactive: -29%
O=C(NCCN1CCOCC1)c1cc(-c2ccco2)on1,–,inactive: 9.2%
Cc1nc(CCNC(=O)c2ccccc2)cs1,–,inactive: 24%
CN(C)S(=O)(=O)c1ccc(C(=O)Nc2ccc(S(=O)(=O)NC3=NCCCCC3)cc2)cc1,–,inactive: -16.4%
CC(C)(C)NC(=O)c1ccc2nc(CCc3ccccc3)oc2c1,–,inactive: -9.79% [at 46.1 µM]
CCOC(=O)CS(=O)(=O)c1nc(-c2ccc(F)cc2)cc(C(F)(F)F)n1,"inconclusive: 14.1 µM [inhibitor, partial curve, poor fit]",–
Cc1sc2nc(CSc3n[nH]c(N)n3)[nH]c(=O)c2c1C,–,inactive: 2.41%
CCc1nn(Cc2c(C)cc(C)cc2C)c(=O)c2cc3cc(C)ccc3n12,–,inactive: -11.4% [at 46.1 µM]
O=C(Nc1ccc(F)cc1F)N1CCN(c2ccc(Cl)c(Cl)c2)CC1,–,inactive: 21.7% [at 46.1 µM]
S=C1SCN(Cc2ccco2)CN1Cc1ccco1,"inconclusive: 35.5 µM [inhibitor, partial curve, poor fit]",–
Cc1cc(C(=O)Nc2ccc3c(c2)OCCO3)co1,"inconclusive: 29.1 µM [inhibitor, single point]",–
COc1cc(Nc2ncc3c(n2)CCN(Cc2cc(F)cc(F)c2)C3)cc(OC)c1,"inconclusive: 7.08 µM [inhibitor, partial curve, poor fit]",–
COc1cc(/C=C/[N+](=O)[O-])ccc1OCc1cccc(C(=O)O)c1,active: 0.631 µM,–
COc1ccc(Nc2ncc3c(n2)CC(c2ccc(OC)cc2)CC3=O)cc1 (stereo unspecified),"inconclusive: 0.0891 µM [inhibitor, full curve, poor fit]",–
Cc1ccc(C)c(N2CCN(S(=O)(=O)c3ccc4c(c3)OCCO4)CC2)c1,"inconclusive: 35.5 µM [inhibitor, single point]",–
Cc1cccc(C)c1NC(=S)NC(=O)CCc1ccccc1,"inconclusive: 16.4 µM [inhibitor, single point]",–
Cc1ccc(NC(=O)C2CC(=O)N(c3ccc4c(c3)OCCO4)C2)cc1S(=O)(=O)N(C)C (stereo unspecified),"inconclusive: 8.91 µM [inhibitor, partial curve, poor fit]",–
CN1CCN(C(=O)/C=C/c2ccc(Cl)c(Cl)c2)CC1,"inconclusive: 6.31 µM [activator, full curve]",–
COc1ccc2cc(Br)ccc2c1CC(=O)NC(C)(C)C,"inconclusive: 10.3 µM [inhibitor, single point]",–

SMILES,Potency,"activity change, negative = inhibition"
COc1ccc(C2C(C#N)=C(N)Oc3c2ccc2cccnc32)cc1OC (stereo unspecified),"inconclusive: 0.631 µM [inhibitor, full curve, poor fit]",–
Cc1nc2ccc(S(=O)(=O)Nc3cc(-c4nc5cccnc5s4)ccc3C)cc2s1,–,inactive: -18.2%
COc1ccc(/C=C2\SC(=S)N(CCCC(=O)NNC(=O)c3ccccc3O)C2=O)cc1,active: 2.24 µM,–
CCCCOP(=O)(c1ccc(N(C)C)cc1)C(Nc1ccccc1)c1ccccc1 (stereo unspecified),"inconclusive: 11.2 µM [inhibitor, partial curve]",–
CCOC(=O)C1(CCCc2ccccc2)CCN(Cc2cnc(C)s2)CC1,"inconclusive: 15.8 µM [inhibitor, partial curve, poor fit]",–
Cc1cc(C(=O)COC(=O)c2ccncc2)c(C)n1Cc1ccco1,"inconclusive: 1.26 µM [inhibitor, single point]",–
CCC(C)n1c(SCC(=O)NC(=O)Nc2ccc3c(c2)OCCO3)nc2ccccc2c1=O (stereo unspecified),"inconclusive: 4.11 µM [inhibitor, single point]",–
N#Cc1c(N2CCSCC2)nsc1-c1ccccc1Cl,"inconclusive: 35.5 µM [inhibitor, single point]",–
CCCc1cnc2c(c1SCC(=O)Nc1ccccc1F)c(=O)n(C)c(=O)n2C,–,inactive: -1.65% [at 46.1 µM]
O=C(O)C1=NOC(CNC(=O)c2ccccc2Cl)C1 (stereo unspecified),–,inactive: 1.98%
O=C(Nc1ccc(Cl)c(Cl)c1)c1ccc(Cn2c(=O)[nH]c3ccsc3c2=O)cc1,"inconclusive: 0.0231 µM [inhibitor, full curve, poor fit]",–
O=C(c1cccc(Oc2ccccc2)c1)N1CCN(c2ccccn2)CC1,"inconclusive: 20 µM [inhibitor, single point]",–
Cc1ccc(S(=O)(=O)c2nc(-c3ccccc3Br)oc2N(C)C)cc1,"inconclusive: 25.1 µM [inhibitor, single point]",–
Cc1cnc(NC(=O)C2CCC(C(C)(C)C)CC2)s1 (stereo unspecified),–,inactive: -25.5%
COc1cc(C(=O)OCC(=O)NCCC2=CCCCC2)ccc1OCC(C)C,"inconclusive: 1.12 µM [inhibitor, partial curve, poor fit]",–
Cc1cccc(N2CCN(S(=O)(=O)c3c(C(=O)N4CCC(C)CC4)c(C)n(C)c3C)CC2)c1C,"inconclusive: 35.5 µM [inhibitor, single point]",–
CCCCCc1nn2cc(-c3ccccc3)nc2s1,"inconclusive: 3.16 µM [activator, partial curve, poor fit]",–
COc1ccc(Cl)c(N2CCN(CCCNC(=O)Nc3ccc(C)cc3)CC2)c1,"inconclusive: 22.4 µM [inhibitor, single point]",–
CC(=O)N(CCCc1ccc(C(C)(C)C)cc1)CCCN(C)C,–,inactive: -6.82%
Cc1ccc2c(Cl)c(C(=O)Nc3ccc4c(c3)OCO4)sc2c1,"inconclusive: 2.91 µM [activator, partial curve, poor fit]",–
CCNC(=S)N1CCN(c2ccccn2)CC1,–,inactive: 4.41% [at 46.1 µM]
CCn1cc(C(=O)NC(=S)Nc2sc3c(c2C(=O)OC)CCCCCC3)cn1,"inconclusive: 6.31 µM [inhibitor, single point]",–
